Laboratory results taken from article doi:10.1101/723940.
These are yes or no findings as the source states them, for the method shown. In cells and extracts the contact can be indirect. Binding calls can cover weak binding; strength is not graded here.

By UniProt entry, the sequences of proteins in these tests, tags left out. Where a name states a change or a piece, a line headed by the entry shows the natural chain unless it says otherwise.
UniProt Q9Y696: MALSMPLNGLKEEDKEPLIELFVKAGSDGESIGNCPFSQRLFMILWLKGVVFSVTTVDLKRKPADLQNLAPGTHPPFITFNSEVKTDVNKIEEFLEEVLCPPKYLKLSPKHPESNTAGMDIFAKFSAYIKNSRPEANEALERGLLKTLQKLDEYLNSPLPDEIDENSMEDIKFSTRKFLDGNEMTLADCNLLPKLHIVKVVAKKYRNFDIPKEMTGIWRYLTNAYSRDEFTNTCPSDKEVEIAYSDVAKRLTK
UniProt Q9P289: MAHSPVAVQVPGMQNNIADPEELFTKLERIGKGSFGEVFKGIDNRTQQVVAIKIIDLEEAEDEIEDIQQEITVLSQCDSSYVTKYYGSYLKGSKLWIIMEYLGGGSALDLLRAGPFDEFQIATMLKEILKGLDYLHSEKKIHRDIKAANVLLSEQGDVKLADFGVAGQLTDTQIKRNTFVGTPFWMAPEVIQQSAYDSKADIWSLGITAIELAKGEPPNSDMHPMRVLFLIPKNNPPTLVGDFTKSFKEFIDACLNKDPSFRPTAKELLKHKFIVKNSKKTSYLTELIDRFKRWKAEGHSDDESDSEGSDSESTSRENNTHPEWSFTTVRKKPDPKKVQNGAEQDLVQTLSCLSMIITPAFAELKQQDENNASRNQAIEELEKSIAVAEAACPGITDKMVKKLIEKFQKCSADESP

Target: GST-CLIC4 (chloride intracellular channel 4) (UniProt Q9Y696)
Assay: pull-down

MST4 kinase (from UniProt Q9P289 1-416) (enzyme)
binding: binds
